Measured values as given in article PMC10874430.
The exact form of at least one protein or probe is not confirmed. For part of these data: A negative result means that nothing was seen under these conditions.

Tests used:
[1] = test system: MBP-MIB2 (SPATULA homolog, bHLH) (Solanum lycopersicum); assay: EMSA; conditions: poly(dI-dC); EMSA 20 uL: 1 ug protein, 4 uL biotin probe (100 pmol), 2 uL LightShift kit binding buffer, 1 uL poly(dI-dC); temperature not stated; recombinant protein; protein details: MBP, 6xHis (MBP-pMCSG7); label: 5' biotin on both strands
[2] = test system: MBP-MIB2 (SPATULA homolog, bHLH) (Solanum lycopersicum); assay: competition with a labelled probe; conditions: unlabeled competitor attenuates binding to N1, poly(dI-dC); EMSA 20 uL: 1 ug protein, 4 uL biotin probe (100 pmol), 2 uL LightShift kit binding buffer, 1 uL poly(dI-dC); temperature not stated; recombinant protein; protein details: MBP, 6xHis (MBP-pMCSG7)

Sequence	binding result [1]	binding result [2]
CCAAGTGGGGAGAGAATCCACAGGTGACACGTGGAGAGAAGTTAATGGG (double strand) [SlCOL1 promoter G-box probe (XP7276/XP7277)]	binds	
CCAAGTGGGGAGAGAATCCACAGGTGAGAGAGAAGTTAATGGG (double strand) [SlCOL1 mutant G-box probe (XP7280/XP7281), CACGTG deleted]	no binding	
CCAAGTGGGGAGAGAATCCACAGGTGACACGTGGAGAGAAGTTAATGGG (double strand) [SlCOL1 promoter G-box unlabeled competitor (XP7278/XP7279)]		binds
